Earlier results in patent US5254686A, “Procaine double salt complexes” (priority 1992, dated 1993).
For at least one compound, name, drawing or mass did not settle the structure.

Conditions: reported; cited from earlier work

Question: For `CCN(CC)CCO` [DEAE, diethylaminoethanol], which mental effects is on record?
Answer: Its mental effects is “mental stimulation, mild euphoria”.
